Results reported in US20020045591A1, “Methods and therapeutic compositions for treating cancer” (priority 1998, published 2002).

B1: N-cadherin: Full length chicken N-cadherin cloned into the pECE expression vector (protein)
chain: DWVIPPINLPENSRGPFPQELVRIRSDRDKSLSLRYSVTGPGADQPPTGIFIINPISGQLSVTKPLDREQIASFHLRAHAVDVNGNQVENPIDIVINVIDMNDNRPEFLHQVWNGTVPEGSKPGTYVMTVTAIDADDPNAQNGMLRYRILSQAPSSPSPNMFTINNETGDIITVAAGLDREKVQQYTLIIQATDMEGNPTYGLSNTATAVITVTDVNDNPPEFTAMTFYGEVPENRVDVIVANLTVTDKDQPHTPAWNARYQMTGGDPTGQFTILTDPNSNDGLVTVVKPIDFETNRMFVLTVAAENQVPLAKGIQHPPQSTATVSITVIDVNESPYFVPNPKLVRQEEGLLAGSMLTTFTARDPDRYMQQTSLRYSKLSDPANWLKIDPVNGQITTTAVLDRESIYVQNNMYNATFLASDNGIPPMSGTGTLQIYLLDINDNAPQVNPKEATTCETLQPNAINITAVDPDIDPNAGPFAFELPDSPPSIKRNWTIVRISGDHAQLSLRIRFLEAGIYDVPIVITDSGNPHASSTSVLKVKVCQCDINGDCTDVDRIVGAGLGTGAIIAILLCIIILLILVLMFVVWMKRRDKERQAKQLLIDPEDDVRDNILKYDEEGGGEEDQDYDLSQLQQPDTVEPDAIKPVGIRRLDERPIHAEPQYPVRSAAPHPGDIGDFINEGLKAADNDPTAPPYDSLLVFDYEGSGSTAGSLSSLNSSSSGGEQDYDYLNDWGPRFKKLADMYGGGDD
B2: N-cadherin tail: Cytoplasmic domain of chicken N-cadherin tagged with a Flag epitope (protein)
chain: MKRRDKERQAKQLLIDPEDDVRDNILKYDEEGGGEEDQDYDLSQLQQPDTVEPDAIKPVGIRRLDERPIHAEPQYPVRSAAPHPGDIGDFINEGLKAADNDPTAPPYDSLLVFDYEGSGSTAGSLSSLNSSSSGGEQDYDYLNDWGPRFKKLADMYGGGDD
modifications: left off: small tags and cut ends

System: CHO cells
Experiment: Triton X-100 fractionation of CHO cells
Type: cell-based
Details: FIG. 3
[1] = CHO cells expressing the derivative

Molecule	fraction of β-catenin detergent-insoluble [1] [%]	fraction of cadherin derivative in Triton X-100-insoluble fraction (stably transfected CHO cells) [%]	fraction of β-catenin Triton-soluble [1] [%]	fraction of cadherin derivative Triton-soluble (stably transfected CHO cells) [%]
B1	72	71	–	–
B2	–	–	64	74
